Here are results for 3 substances from PMC10978942.

Positions count from the first letter of the chain named. Results are given in words; binding and its absence hold for the method and conditions named. For some assays here: Binding can be weak; no strength is given. Tags and fused reporters may be left off the sequences shown. For some assays here: In cells and extracts the contact can be indirect.

The target in assay [1] is T1, GST-ACE1^317-463aa (Trichoderma reesei) (UniProt Q9P8W3).
T1 sequence: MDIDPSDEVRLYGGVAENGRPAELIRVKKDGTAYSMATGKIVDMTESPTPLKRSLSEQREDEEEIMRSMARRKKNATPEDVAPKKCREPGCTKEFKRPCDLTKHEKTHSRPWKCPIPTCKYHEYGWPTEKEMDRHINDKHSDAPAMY
The assay can be described thus: pull-down; 20 ug GST-ACE1^317-463aa with 20 ug His-TrSAM in 500 uL 50 mM Tris-HCl pH 6.8, 250 mM NaCl, 1.5% glycerol, 0.6% Triton X-100, 0.1% Tween-80, 4 h at 4 °C; glutathione beads; blots with anti-GST and anti-His; both purified.

The target of assay [2] is T2, ACE1-BD (ACE1 fused with the GAL4 DNA-binding domain) (Trichoderma reesei) (UniProt Q9P8W3).
T2 sequence: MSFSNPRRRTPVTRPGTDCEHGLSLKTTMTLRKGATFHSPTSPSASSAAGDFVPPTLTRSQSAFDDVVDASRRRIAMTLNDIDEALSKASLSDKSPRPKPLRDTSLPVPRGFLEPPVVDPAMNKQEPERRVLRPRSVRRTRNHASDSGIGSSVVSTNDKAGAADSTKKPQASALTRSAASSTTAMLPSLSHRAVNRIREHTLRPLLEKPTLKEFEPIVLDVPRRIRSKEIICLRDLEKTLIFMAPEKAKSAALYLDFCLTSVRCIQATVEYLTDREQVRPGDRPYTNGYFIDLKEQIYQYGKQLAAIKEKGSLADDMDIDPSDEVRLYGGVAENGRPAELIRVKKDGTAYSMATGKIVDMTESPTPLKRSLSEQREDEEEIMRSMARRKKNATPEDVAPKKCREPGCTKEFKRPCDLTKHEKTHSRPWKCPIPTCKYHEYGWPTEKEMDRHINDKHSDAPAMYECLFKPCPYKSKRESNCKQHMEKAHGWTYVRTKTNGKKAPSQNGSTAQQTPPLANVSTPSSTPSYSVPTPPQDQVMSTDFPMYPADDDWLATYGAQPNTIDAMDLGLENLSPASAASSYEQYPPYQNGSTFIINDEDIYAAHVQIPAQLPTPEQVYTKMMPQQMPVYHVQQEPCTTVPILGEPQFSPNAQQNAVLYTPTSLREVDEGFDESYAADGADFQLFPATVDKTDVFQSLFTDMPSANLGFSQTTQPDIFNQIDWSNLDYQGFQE
Nature of the assay: two-hybrid; Matchmaker Gold Yeast Two-Hybrid System; trsam or xyr1 on the GAL4 activation domain (pGADT7), regulators on the GAL4 DNA-binding domain (pGBKT7); growth without histidine and adenine, 3-amino-1,2,4-triazole, X-alpha-gal.

In assay [3] the target is T3, ACE1^R383K-BD (Trichoderma reesei) (UniProt Q9P8W3).
T3 sequence: T2 sequence with R383K
The assay is described as above.

Assay [4] deals with T4, ACE1^R383Q-BD (Trichoderma reesei) (UniProt Q9P8W3).
T4 sequence: T2 sequence with R383Q
Described as above.

Assay [5] has as its target T5, Lae1-BD (Trichoderma reesei) (UniProt G0RNN3).
T5 sequence: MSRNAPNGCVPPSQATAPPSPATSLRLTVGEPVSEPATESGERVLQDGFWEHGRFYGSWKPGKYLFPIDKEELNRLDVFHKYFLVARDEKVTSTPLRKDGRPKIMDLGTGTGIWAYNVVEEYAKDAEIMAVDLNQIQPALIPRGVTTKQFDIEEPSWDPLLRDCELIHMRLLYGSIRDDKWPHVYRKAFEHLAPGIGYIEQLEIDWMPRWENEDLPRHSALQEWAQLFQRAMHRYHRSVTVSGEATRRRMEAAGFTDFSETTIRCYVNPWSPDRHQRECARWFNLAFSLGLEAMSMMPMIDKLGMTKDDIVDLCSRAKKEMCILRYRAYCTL
The description is as above.

Assay [6] has as its target T6, ACE1(RK)-C-GFP (Trichoderma reesei) (UniProt Q9P8W3).
T6 sequence: T2 sequence with R383K
The assay can be described thus: split reporter; BiFC with eGFP halves in T. reesei 1D4-6, strains induced by lactose.

Assay [7] deals with T7, ACE1(RQ)-C-GFP (Trichoderma reesei) (UniProt Q9P8W3).
T7 sequence: T2 sequence with R383Q
Described as above.

For assay [8], the target named is T8, ACE1-C-GFP (Trichoderma reesei) (UniProt Q9P8W3).
T8 sequence: T2 sequence
The assay is described as above.

Assay [9] has as its target T6, ACE1(RK)-C-GFP (Trichoderma reesei). Nature of the assay: split reporter; BiFC with eGFP halves in T. reesei 1D4-6 cultured in 2% glucose repressing medium, 24 h, microscopy.
Assay [10] concerns the target T7, ACE1(RQ)-C-GFP (Trichoderma reesei). The description is as above.
Assay [11] deals with T8, ACE1-C-GFP (Trichoderma reesei). The description is as above.

As to His-TrSAM (Trichoderma reesei) (enzyme), the binding result in assay [1] is listed as “binds”.

Regarding “TrSAM-AD (TrSAM fused with the GAL4 activation domain) (Trichoderma reesei) (enzyme)”, the binding entry in assay [2] was “binds”; in [3] it was “binds”; in assay [4] it was “no binding”; in [5], “no binding”.

As to “N-GFP-TrSAM (Trichoderma reesei) (enzyme)”, the binding entry in [6] is on record as “binds weakly”; in [7], “no binding (only strains induced by lactose)”; in assay [8] it was “binds weakly”; in assay [9], “binds”; in assay [10] it was “binds weakly”; in assay [11] it was “binds”.
